Reference: article PMC8458385, “Molecular basis for PICS-mediated piRNA biogenesis and cell division” (Nature Communications, 2021)
No constants are given. Whether binding was seen depends on the method and setting. For part of these data: Tags and fused reporters may be left off the sequences shown.

What was measured:
[1] = molecular target: PICS-1^RRM F217E (C. elegans) (UniProt O76616); test: SEC; wild type and F217E of PICS-1^RRM on HiLoad 16/600 Superdex 75, 20 mM Tris hydrochloride pH 8.5, 200 mM NaCl; both purified
[2] = molecular target: PICS-1^RRM F217E (C. elegans) (UniProt O76616); test: SEC; gel filtration of PICS-1^RRM wild type and F217E alone, HiLoad 16/600 Superdex 75; 20 mM Tris, 200 mM NaCl (pH 8.5 in the methods, pH 7.5 in the legend); both purified
ERH-2 (C. elegans) [3] = molecular target: T1, ERH-2 (C. elegans) (UniProt Q20057); test: condition: 1-2 mM in the syringe, 30-50 μM in the cell; ITC; MicroCal ITC200, 25 °C; 20 mM Tris pH 8.5, 200 mM NaCl or 20 mM MES pH 6.5, 200 mM NaCl; 1-2 mM protein or peptide in the syringe titrated into 30-50 μM protein in the cell; one-site model; Kd mean ± SD of a minimum of two experiments; both purified
T1 sequence: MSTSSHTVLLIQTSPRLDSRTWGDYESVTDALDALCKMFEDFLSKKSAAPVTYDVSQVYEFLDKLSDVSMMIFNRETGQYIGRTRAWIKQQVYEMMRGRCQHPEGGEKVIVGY

ERH-2 M38D (C. elegans) [4] = molecular target: T2, ERH-2 M38D (C. elegans) (UniProt Q20057); test: as above
T2 sequence: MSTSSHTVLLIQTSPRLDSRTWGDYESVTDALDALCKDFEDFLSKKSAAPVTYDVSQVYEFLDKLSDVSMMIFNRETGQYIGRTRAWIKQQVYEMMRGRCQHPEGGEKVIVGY

ERH-2 D67A (C. elegans) [5] = molecular target: T3, ERH-2 D67A (C. elegans) (UniProt Q20057); test: as above
T3 sequence: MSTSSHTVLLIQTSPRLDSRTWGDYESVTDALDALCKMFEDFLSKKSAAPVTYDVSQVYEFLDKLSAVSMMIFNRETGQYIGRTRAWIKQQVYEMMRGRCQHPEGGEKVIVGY

[6] = molecular target: T4, ERH-2^1-103-(Gly-Ser-Ser)6-TOST-1^34-54 fusion protein (C. elegans) (UniProt Q20057+Q18490); test: as above
T4 sequence: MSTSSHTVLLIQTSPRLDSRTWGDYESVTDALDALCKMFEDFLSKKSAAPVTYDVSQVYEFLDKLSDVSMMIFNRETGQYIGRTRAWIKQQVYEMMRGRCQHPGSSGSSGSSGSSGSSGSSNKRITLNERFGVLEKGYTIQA

ERH-2 (C. elegans) [7] = molecular target: T1, ERH-2 (C. elegans); test: SEC; ERH-2 and TOFU-6^RRM mixed with PICS-1 constructs, Superose 6 Increase 10/300 GL, 20 mM Tris hydrochloride pH 8.5, 200 mM NaCl; fractions on SDS-PAGE; both purified
[8] = molecular target: T5, ERH-2^1-103-(Gly-Ser-Ser)6-TOST-1^34-54 (C. elegans) (UniProt Q20057+Q18490); test: condition: 1–2 mM in the syringe, 30–50 μM in the cell; ITC; MicroCal ITC200, 25 °C, 20 mM Tris pH 8.5, 200 mM NaCl or 20 mM MES pH 6.5, 200 mM NaCl; 1–2 mM in the syringe into 30–50 μM in the cell; one-site binding model; both purified
T5 sequence: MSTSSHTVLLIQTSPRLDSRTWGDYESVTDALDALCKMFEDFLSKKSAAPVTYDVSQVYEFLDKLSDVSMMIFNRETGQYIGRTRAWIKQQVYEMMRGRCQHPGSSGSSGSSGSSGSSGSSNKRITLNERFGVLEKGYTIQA

ERH-2 (C. elegans) [9] = molecular target: T1, ERH-2 (C. elegans); test: as above
ERH-2 D67A (C. elegans) [10] = molecular target: T3, ERH-2 D67A (C. elegans); test: as above
ERH-2 M38D (C. elegans) [11] = molecular target: T2, ERH-2 M38D (C. elegans); test: as above

B1: PICS-1^RRM F217E (domain or fragment, UniProt O76616 201-282)
chain: QENMLKISGYPGMLNTEGIAQLLTPYRVNGITITGAQSAVVALENKFQVYQAVQDFNGKKLDRNHKLQVSSLVVSSPAVPLE
binding [1]: no binding
binding [2]: no binding

EDDKDSDFKVLHAEEEPRGAD (domain or fragment, UniProt O76616 180-200) [SUMO-PICS-1^180-200 I182D/V186D]
binding (ERH-2 (C. elegans) [3]): no binding

EDIKDSVFKDDHAEEEPRGAD (domain or fragment, UniProt O76616 180-200) [SUMO-PICS-1^180-200 V189D/L190D]
binding (ERH-2 (C. elegans) [3]): no binding

B2: SUMO-PICS-1^180-200 (ERH-2 binding motif, EBM) (domain or fragment, C. elegans, UniProt O76616 180-200, looked up)
chain: EDIKDSVFKVLHAEEEPRGAD
notes: Fused to the C-terminus of SUMO (pET28-SUMO); the Kds are for the SUMO fusion; also called PICS-1EBM; source: E. coli BL21(DE3), purified (Ni-NTA); not shown: SUMO, N-terminal, kept
binding (ERH-2 M38D (C. elegans) [4]): no binding

B3: SUMO-TOST-1^34-54 (domain or fragment, C. elegans, UniProt Q18490 34-54, looked up)
chain: NKRITLNERFGVLEKGYTIQA
notes: TOST-1, C. elegans, residues 34-54; Fused to the C-terminus of SUMO (pET28-SUMO); the Kds are for the SUMO fusion; also called TOST-1 fragment; source: E. coli BL21(DE3), purified (Ni-NTA); not shown: SUMO, N-terminal, kept
binding (ERH-2 D67A (C. elegans) [5]): no binding

NKRITLNECFGVLEKGYTIQA (domain or fragment, UniProt Q18490 34-54) [SUMO-TOST-1^34-54 R42C]
binding (ERH-2 (C. elegans) [3]): no binding

NKRITANERAGVLEKGYTIQA (domain or fragment, UniProt Q18490 34-54) [SUMO-TOST-1^34-54 L39A/F43A]
binding (ERH-2 (C. elegans) [3]): no binding

B4: SUMO-PID-1^50-70 (domain or fragment, C. elegans, UniProt Q19541 50-70, looked up)
chain: TNLHRKVTLSDRFELAALGYE
notes: PID-1, C. elegans, residues 50-70; Fused to the C-terminus of SUMO; the Kds are for the SUMO fusion; also called PID-1 fragment; source: E. coli BL21(DE3), purified (Ni-NTA); not shown: SUMO, N-terminal, kept
binding (ERH-2 D67A (C. elegans) [5]): no binding
binding [6]: no binding

B5: PICS-1^5-282 with EBM deleted (domain or fragment, UniProt O76616)
chain: QKADFKSKWAMVVTVNNLNDKKRADLREFSEWFIETLRLEGAFIGHYFNYEAAPVTIVETLPGNFDSCTNAYQKIHKEHPQVVLVVHILPQSQSNEYEWMKVLASRYGFVRQGLLYDNCANRFQNVETDQNSVFRNMCQWIYRSGTAIVRNEGNACGILHGKDPKPTFDKVLFNSQENMLKISGYPGMLNTFGIAQLLTPYRVNGITITGAQSAVVALENKFQVYQAVQDFNGKKLDRNHKLQVSSLVVSSPAVPLE
binding (ERH-2 (C. elegans) [7]): no binding

B6: SUMO-fused PID-1^50-70 (domain or fragment, C. elegans, UniProt Q19541 50-70, looked up)
chain: TNLHRKVTLSDRFELAALGYE
notes: PID-1, C. elegans, residues 50-70; the results say it was fused to the C-terminus of SUMO; also called PID-1 fragment; source: E. coli BL21(DE3), purified (Ni-NTA); not shown: SUMO, N-terminal, kept
binding [8]: no binding

EDDKDSDFKVLHAEEEPRGAD (domain or fragment, UniProt O76616 180-200) [SUMO-fused EBM I182D/V186D (PICS-1 residues 180-200)]
binding (ERH-2 (C. elegans) [9]): no binding

EDIKDSVFKDDHAEEEPRGAD (domain or fragment, UniProt O76616 180-200) [SUMO-fused EBM V189D/L190D (PICS-1 residues 180-200)]
binding (ERH-2 (C. elegans) [9]): no binding

B7: SUMO-fused TOST-1^34-54 (domain or fragment, C. elegans, UniProt Q18490 34-54, looked up)
chain: NKRITLNERFGVLEKGYTIQA
notes: TOST-1, C. elegans, residues 34-54; Cloned into pET28-SUMO; also called TOST-1 fragment; source: E. coli BL21(DE3), purified (Ni-NTA); not shown: SUMO, N-terminal, kept
binding (ERH-2 D67A (C. elegans) [10]): no binding

NKRITLNECFGVLEKGYTIQA (domain or fragment, UniProt Q18490 34-54) [SUMO-fused TOST-1^34-54 R42C]
binding (ERH-2 (C. elegans) [9]): no binding

NKRITANERAGVLEKGYTIQA (domain or fragment, UniProt Q18490 34-54) [SUMO-fused TOST-1^34-54 L39A/F43A]
binding (ERH-2 (C. elegans) [9]): no binding

B8: SUMO-fused PICS-1 ERH-2 binding motif (EBM, residues 180-200) (domain or fragment, C. elegans, UniProt O76616 180-200, looked up)
chain: EDIKDSVFKVLHAEEEPRGAD
notes: Cloned into pET28-SUMO; the Kds are for the SUMO fusion protein; also called PICS-1^EBM; PICS-1^180-200; source: E. coli BL21(DE3), purified (Ni-NTA); not shown: SUMO, N-terminal, kept
binding (ERH-2 M38D (C. elegans) [11]): no binding
